Laboratory results reported in the supplement of paper PMC11546906.
Some of the results follow. Repeats in this data set agree poorly, so a single value says little.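 Screen of FDA-approved drugs, each combined with colistin at one-eighth of its MIC, against a multidrug-resistant mcr-1-positive clinical E. coli isolate; growth read as OD600 after 24 h. Bacteria without drug were the growth control and plain broth the blank. A combination counted as active when OD600 fell below 0.2.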

The compounds below were run on Escherichia coli 42 (mcr-1-positive clinical isolate) (assay: OD600 after 24 h growth with compound plus colistin (absorbance units (OD600)); higher = more bacterial growth (less inhibition)). Conditions: first compound 25 µM; colistin concentration 0.5 ug/mL; incubation time 24 h; 37 °C.

Row | SMILES | OD600
1 | COc1cc(C)c(/C=C/C(C)=C/C=C/C(C)=C/C(=O)O)c(C)c1C [Acitretin] + CCC(C)CCCC(=O)N[C@@H](CCN)C(=O)N[C@H](C(=O)N[C@@H](CCN)C(=O)N[C@H]1CCNC(=O)[C@H]([C@@H](C)O)NC(=O)[C@H](CCN)NC(=O)[C@H](CCN)NC(=O)[C@H](CC(C)C)NC(=O)[C@@H](CC(C)C)NC(=O)[C@H](CCN)NC1=O)[C@@H](C)O [colistin] | inactive: 0.921
2 | COc1ccc2[nH]c(SCc3ncc(C)c(OC)c3C)nc2c1 [Omeprazole sulfide] + CCC(C)CCCC(=O)N[C@@H](CCN)C(=O)N[C@H](C(=O)N[C@@H](CCN)C(=O)N[C@H]1CCNC(=O)[C@H]([C@@H](C)O)NC(=O)[C@H](CCN)NC(=O)[C@H](CCN)NC(=O)[C@H](CC(C)C)NC(=O)[C@@H](CC(C)C)NC(=O)[C@H](CCN)NC1=O)[C@@H](C)O [colistin] | inactive: 1.03
3 | CC1(C)NC(=O)N(c2ccc([N+](=O)[O-])c(C(F)(F)F)c2)C1=O [Nilutamide] + CCC(C)CCCC(=O)N[C@@H](CCN)C(=O)N[C@H](C(=O)N[C@@H](CCN)C(=O)N[C@H]1CCNC(=O)[C@H]([C@@H](C)O)NC(=O)[C@H](CCN)NC(=O)[C@H](CCN)NC(=O)[C@H](CC(C)C)NC(=O)[C@@H](CC(C)C)NC(=O)[C@H](CCN)NC1=O)[C@@H](C)O [colistin] | inactive: 1.11
4 | COc1ncnc(NS(=O)(=O)c2ccc(N)cc2)c1OC [Sulfadoxine] + CCC(C)CCCC(=O)N[C@@H](CCN)C(=O)N[C@H](C(=O)N[C@@H](CCN)C(=O)N[C@H]1CCNC(=O)[C@H]([C@@H](C)O)NC(=O)[C@H](CCN)NC(=O)[C@H](CCN)NC(=O)[C@H](CC(C)C)NC(=O)[C@@H](CC(C)C)NC(=O)[C@H](CCN)NC1=O)[C@@H](C)O [colistin] | inactive: 0.975
5 | O=C1[C@H](CC[C@H](O)c2ccc(F)cc2)[C@@H](c2ccc(O)cc2)N1c1ccc(F)cc1 [Ezetimibe] + CCC(C)CCCC(=O)N[C@@H](CCN)C(=O)N[C@H](C(=O)N[C@@H](CCN)C(=O)N[C@H]1CCNC(=O)[C@H]([C@@H](C)O)NC(=O)[C@H](CCN)NC(=O)[C@H](CCN)NC(=O)[C@H](CC(C)C)NC(=O)[C@@H](CC(C)C)NC(=O)[C@H](CCN)NC1=O)[C@@H](C)O [colistin] | inactive: 0.79
6 | O=c1cc[nH]c(=S)[nH]1 [2-Thiouracil] + CCC(C)CCCC(=O)N[C@@H](CCN)C(=O)N[C@H](C(=O)N[C@@H](CCN)C(=O)N[C@H]1CCNC(=O)[C@H]([C@@H](C)O)NC(=O)[C@H](CCN)NC(=O)[C@H](CCN)NC(=O)[C@H](CC(C)C)NC(=O)[C@@H](CC(C)C)NC(=O)[C@H](CCN)NC1=O)[C@@H](C)O [colistin] | inactive: 0.808
7 | CC(C)C(=O)OCC(=O)[C@@]12O[C@H](C3CCCCC3)O[C@@H]1C[C@H]1[C@@H]3CCC4=CC(=O)C=C[C@]4(C)[C@H]3[C@@H](O)C[C@@]12C [Ciclesonide] + CCC(C)CCCC(=O)N[C@@H](CCN)C(=O)N[C@H](C(=O)N[C@@H](CCN)C(=O)N[C@H]1CCNC(=O)[C@H]([C@@H](C)O)NC(=O)[C@H](CCN)NC(=O)[C@H](CCN)NC(=O)[C@H](CC(C)C)NC(=O)[C@@H](CC(C)C)NC(=O)[C@H](CCN)NC1=O)[C@@H](C)O [colistin] | inactive: 0.966
8 | Cc1c(S(=O)(=O)O)oc2c1C(=O)C(=O)c1c-2ccc2c1CCCC2(C)C [Tanshinone IIA sulfonate sodium] + CCC(C)CCCC(=O)N[C@@H](CCN)C(=O)N[C@H](C(=O)N[C@@H](CCN)C(=O)N[C@H]1CCNC(=O)[C@H]([C@@H](C)O)NC(=O)[C@H](CCN)NC(=O)[C@H](CCN)NC(=O)[C@H](CC(C)C)NC(=O)[C@@H](CC(C)C)NC(=O)[C@H](CCN)NC1=O)[C@@H](C)O [colistin] | inactive: 1.07
9 | C[C@H]1O[C@@H](O[C@H]2[C@@H](O)C[C@H](O[C@H]3[C@@H](O)C[C@H](O[C@H]4CC[C@@]5(C)[C@H](CC[C@@H]6[C@@H]5CC[C@]5(C)[C@@H](C7=CC(=O)OC7)CC[C@]65O)C4)O[C@@H]3C)O[C@@H]2C)C[C@H](O)[C@@H]1O [Digitoxin] + CCC(C)CCCC(=O)N[C@@H](CCN)C(=O)N[C@H](C(=O)N[C@@H](CCN)C(=O)N[C@H]1CCNC(=O)[C@H]([C@@H](C)O)NC(=O)[C@H](CCN)NC(=O)[C@H](CCN)NC(=O)[C@H](CC(C)C)NC(=O)[C@@H](CC(C)C)NC(=O)[C@H](CCN)NC1=O)[C@@H](C)O [colistin] | inactive: 1.02
